From the supplement of paper PMC10849652
This is one part of the list.

Sequences of proteins named here, by UniProt entry; tags and fusion partners are left off. A change or cut given only in a name is not applied to a line headed by its entry.
UniProt P53667: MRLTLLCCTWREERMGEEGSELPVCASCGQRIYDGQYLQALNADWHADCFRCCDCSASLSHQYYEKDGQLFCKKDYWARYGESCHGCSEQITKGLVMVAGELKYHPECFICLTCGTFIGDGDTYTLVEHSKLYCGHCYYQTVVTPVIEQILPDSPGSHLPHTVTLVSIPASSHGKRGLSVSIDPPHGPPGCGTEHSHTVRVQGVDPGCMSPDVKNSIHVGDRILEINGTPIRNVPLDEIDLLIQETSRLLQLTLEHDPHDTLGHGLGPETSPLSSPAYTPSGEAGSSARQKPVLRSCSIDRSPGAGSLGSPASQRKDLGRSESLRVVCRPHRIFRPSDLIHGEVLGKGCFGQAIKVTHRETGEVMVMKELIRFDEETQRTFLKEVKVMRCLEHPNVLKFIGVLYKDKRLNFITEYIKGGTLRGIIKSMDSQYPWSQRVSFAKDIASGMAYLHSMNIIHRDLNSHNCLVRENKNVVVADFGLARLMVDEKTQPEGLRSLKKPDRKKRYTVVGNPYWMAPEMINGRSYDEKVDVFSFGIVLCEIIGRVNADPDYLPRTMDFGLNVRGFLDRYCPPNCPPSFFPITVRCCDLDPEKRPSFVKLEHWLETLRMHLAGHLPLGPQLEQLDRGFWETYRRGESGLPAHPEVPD
UniProt Q9UIQ6, whole entry, looked up: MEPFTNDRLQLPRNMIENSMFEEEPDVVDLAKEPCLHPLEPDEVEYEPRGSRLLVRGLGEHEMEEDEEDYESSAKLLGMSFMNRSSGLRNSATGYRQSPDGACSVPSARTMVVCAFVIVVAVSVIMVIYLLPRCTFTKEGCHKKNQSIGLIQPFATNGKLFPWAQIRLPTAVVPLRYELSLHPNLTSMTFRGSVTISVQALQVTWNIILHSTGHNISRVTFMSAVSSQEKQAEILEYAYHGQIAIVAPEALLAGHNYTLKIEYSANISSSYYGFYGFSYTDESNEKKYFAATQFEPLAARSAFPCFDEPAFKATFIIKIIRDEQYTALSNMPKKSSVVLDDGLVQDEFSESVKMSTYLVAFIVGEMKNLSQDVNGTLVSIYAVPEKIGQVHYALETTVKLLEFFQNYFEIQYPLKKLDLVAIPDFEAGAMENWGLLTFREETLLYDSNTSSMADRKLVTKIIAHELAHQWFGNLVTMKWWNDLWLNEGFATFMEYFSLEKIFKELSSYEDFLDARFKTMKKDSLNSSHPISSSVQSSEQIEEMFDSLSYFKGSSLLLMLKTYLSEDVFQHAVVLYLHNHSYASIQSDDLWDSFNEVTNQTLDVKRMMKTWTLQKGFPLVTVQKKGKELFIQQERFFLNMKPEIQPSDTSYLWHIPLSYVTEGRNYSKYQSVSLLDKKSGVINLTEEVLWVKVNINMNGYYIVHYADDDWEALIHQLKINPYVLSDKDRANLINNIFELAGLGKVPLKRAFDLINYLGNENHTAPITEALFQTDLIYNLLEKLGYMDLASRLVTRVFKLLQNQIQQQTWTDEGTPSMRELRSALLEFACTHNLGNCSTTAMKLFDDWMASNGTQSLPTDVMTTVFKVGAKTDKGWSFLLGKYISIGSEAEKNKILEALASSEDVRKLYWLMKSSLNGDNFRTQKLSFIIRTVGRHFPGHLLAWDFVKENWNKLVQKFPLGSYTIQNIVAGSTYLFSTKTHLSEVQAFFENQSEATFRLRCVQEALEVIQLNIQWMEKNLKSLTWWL
UniProt O75427: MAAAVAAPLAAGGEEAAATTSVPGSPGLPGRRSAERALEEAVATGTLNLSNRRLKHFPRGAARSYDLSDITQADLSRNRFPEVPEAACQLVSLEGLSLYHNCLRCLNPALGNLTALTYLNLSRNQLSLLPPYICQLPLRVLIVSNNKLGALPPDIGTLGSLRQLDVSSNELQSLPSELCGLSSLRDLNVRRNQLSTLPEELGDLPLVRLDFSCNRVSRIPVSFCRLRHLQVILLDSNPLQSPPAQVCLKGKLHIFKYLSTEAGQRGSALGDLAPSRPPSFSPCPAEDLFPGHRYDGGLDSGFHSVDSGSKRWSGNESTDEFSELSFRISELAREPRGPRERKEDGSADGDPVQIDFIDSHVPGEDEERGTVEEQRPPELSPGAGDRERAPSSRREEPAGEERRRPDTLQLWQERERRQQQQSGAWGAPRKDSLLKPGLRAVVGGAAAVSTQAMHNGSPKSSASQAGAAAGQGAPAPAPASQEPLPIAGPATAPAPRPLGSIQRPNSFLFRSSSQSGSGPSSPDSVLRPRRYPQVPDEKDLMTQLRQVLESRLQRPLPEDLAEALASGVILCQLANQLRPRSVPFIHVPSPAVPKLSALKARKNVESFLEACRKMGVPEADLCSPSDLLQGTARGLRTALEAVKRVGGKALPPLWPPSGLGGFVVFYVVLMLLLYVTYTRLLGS
UniProt Q9H089: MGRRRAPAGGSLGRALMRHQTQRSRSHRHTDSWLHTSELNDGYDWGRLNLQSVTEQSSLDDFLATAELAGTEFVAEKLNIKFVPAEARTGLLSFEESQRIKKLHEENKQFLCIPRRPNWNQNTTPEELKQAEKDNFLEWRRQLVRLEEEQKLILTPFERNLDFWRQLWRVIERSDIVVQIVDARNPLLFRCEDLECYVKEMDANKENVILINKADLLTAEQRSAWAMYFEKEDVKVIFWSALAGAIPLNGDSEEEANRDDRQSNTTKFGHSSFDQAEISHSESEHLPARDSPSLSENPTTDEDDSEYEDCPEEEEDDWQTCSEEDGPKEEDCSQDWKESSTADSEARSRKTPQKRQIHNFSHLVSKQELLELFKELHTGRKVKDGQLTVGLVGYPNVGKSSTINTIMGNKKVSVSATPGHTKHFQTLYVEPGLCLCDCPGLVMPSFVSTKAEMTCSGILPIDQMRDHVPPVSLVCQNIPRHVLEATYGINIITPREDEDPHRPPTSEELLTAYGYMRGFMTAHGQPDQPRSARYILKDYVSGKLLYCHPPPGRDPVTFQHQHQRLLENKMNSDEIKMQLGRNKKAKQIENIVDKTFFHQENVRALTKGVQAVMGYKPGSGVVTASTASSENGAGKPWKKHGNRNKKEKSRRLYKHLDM
UniProt Q9UFC0: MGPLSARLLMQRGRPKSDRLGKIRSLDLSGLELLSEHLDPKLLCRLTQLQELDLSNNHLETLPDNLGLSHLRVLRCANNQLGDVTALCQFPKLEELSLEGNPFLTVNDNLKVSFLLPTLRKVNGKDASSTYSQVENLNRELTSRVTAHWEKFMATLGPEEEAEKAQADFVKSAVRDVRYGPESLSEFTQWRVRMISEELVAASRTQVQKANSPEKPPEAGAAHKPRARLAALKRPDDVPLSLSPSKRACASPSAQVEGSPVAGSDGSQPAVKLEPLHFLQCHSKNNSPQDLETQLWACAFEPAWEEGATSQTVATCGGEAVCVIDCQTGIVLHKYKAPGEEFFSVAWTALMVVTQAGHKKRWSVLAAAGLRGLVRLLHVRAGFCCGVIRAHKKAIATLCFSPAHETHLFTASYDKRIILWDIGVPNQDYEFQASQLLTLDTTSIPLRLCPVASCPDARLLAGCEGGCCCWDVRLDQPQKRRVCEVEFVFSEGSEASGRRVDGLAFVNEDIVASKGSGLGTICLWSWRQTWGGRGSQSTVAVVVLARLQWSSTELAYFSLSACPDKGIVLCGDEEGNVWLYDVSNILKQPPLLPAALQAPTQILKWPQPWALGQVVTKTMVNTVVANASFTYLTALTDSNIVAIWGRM
UniProt Q8TCA0: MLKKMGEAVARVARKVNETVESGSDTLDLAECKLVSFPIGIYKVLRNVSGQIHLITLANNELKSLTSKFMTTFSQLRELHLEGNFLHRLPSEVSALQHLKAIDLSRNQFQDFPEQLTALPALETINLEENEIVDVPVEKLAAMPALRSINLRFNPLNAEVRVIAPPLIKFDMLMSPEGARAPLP
UniProt Q68DH5: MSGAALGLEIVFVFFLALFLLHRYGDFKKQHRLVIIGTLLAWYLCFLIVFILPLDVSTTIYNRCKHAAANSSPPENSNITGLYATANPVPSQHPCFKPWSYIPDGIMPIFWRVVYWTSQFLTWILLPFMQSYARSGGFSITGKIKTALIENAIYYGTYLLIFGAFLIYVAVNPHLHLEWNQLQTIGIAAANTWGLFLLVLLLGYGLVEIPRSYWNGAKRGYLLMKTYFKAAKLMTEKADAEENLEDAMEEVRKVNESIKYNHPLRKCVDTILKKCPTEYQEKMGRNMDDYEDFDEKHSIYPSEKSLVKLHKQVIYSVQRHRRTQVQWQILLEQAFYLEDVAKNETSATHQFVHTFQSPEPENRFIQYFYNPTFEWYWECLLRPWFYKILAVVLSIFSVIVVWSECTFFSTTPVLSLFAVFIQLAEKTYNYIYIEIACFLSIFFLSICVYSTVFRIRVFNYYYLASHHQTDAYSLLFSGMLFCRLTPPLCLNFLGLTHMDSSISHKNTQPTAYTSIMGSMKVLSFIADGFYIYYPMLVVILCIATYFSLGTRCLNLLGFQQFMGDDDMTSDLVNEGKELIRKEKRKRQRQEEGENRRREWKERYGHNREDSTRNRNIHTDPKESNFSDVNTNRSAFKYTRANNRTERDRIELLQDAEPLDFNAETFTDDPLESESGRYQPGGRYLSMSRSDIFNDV
UniProt Q14847: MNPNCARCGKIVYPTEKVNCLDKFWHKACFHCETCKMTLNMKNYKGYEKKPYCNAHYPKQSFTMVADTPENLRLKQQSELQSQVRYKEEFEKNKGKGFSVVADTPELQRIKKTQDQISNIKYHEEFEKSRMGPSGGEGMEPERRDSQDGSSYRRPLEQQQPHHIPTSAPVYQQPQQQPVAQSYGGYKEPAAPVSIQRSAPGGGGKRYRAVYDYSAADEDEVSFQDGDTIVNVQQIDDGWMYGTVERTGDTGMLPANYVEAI

Assays:
Assay in all cases: log2 fold change, soluble protein after heating vs DMSO (PISA); higher = thermal stabilisation; K562 lysate, 10 uM; active = over 0.2 and 3.5 SD of the protein, either way, in both replicates (recomputed)
[1] = compound: C1=CC=C(C=C1)[C@H](COC2=CC3=C(C=C2)NC(=O)N3)NC(=O)C4=CC=CN(C4=O)CC5=CC(=C(C=C5)F)F
In short: (§1)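 K562 pellets were dounce-homogenised in PBS pH 7.4 containing 1 mM MgCl2, and the crude extract, at 1 mg/mL protein, was exposed to 10 μM compound for 30 min. Aliquots were heated for 3 min across 48°C-58°C, pooled, brought to 0.5% NP-40 at 4°C and spun at 21,000xg for 90 min, with the supernatant taken as soluble protein. TMTpro 16plex LC-MS/MS with equalised channel sums quantified that protein. Values are log-two fold changes in thermal stability relative to solvent controls, taken from duplicates.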

[2] = compound: CC1=C(SC2=C1C(=N[C@H](C3=NN=C(N32)C)CC(=O)N)C4=CC=C(C=C4)Cl)C
In short: as §1

[3] = compound: CC1=C2C(=CC=C1)N=C(N(C2=O)C3=CC=CC=C3C)CN4C=NC5=C(N=CN=C54)N
In short: as §1

[4] = compound: Cc1sc2c(c1C)C(c1ccc(Cl)cc1)=N[C@@H](CC(=O)OC(C)(C)C)c1nnc(C)n1-2
In short: as §1

[5] = compound: c1ccc([C@@H]2C[C@H]2NC2CCNCC2)cc1
In short: as §1

Measured: log2 fold change

LIMK1 (UniProt P53667)
inactive: [1] 0.007 | [2] -0.015 | [3] -0.07 | [4] -0.024 | [5] 0.007

LNPEP (UniProt Q9UIQ6)
inactive: [1] 0.024 | [2] -0.028 | [3] 0.003 | [4] -0.019 | [5] -0.012

LRCH4 (UniProt O75427)
inactive: [1] 0.045 | [2] -0.035 | [3] 0.004 | [4] -0.038 | [5] 0.029

LSG1 (UniProt Q9H089)
inactive: [1] 0.068 | [2] 0.038 | [3] 0.084 | [4] -0.028 | [5] -0.044

LRWD1 (UniProt Q9UFC0)
inactive: [1] -0.027 | [2] 0.044 | [3] -0.012 | [4] 0.023 | [5] 0.039

LRRC20 (UniProt Q8TCA0)
inactive: [1] -0.053 | [2] -0.107 | [3] 0.054 | [4] -0.019 | [5] 0.015

LMBRD2 (UniProt Q68DH5)
inactive: [1] 0.049 | [2] -0.066 | [3] 0.036 | [4] -0.115 | [5] 0.007

LASP1 (UniProt Q14847)
inactive: [1] 0.002 | [2] -0.004 | [3] -0.009 | [4] 0.006 | [5] -0.008

2 consecutive records already listed, quoted:
LRWD1 (UniProt Q9UFC0)
inactive: [1] -0.027 | [2] 0.044 | [3] -0.012 | [4] 0.023 | [5] 0.039

LRRC20 (UniProt Q8TCA0)
inactive: [1] -0.053 | [2] -0.107 | [3] 0.054 | [4] -0.019 | [5] 0.015

(next part)

LEO1 (UniProt Q8WVC0)
inactive: [1] 0.034 | [2] -0.022 | [3] 0.023 | [4] -0.023 | [5] -0.021
